From patent US20230014181A1, “CULTURE SYSTEM AND METHODS FOR IMPROVED MODELING OF NEUROLOGICAL CONDITIONS” (Genentech, Inc., priority 2021, published 2023)
The name of at least one read-out is uncertain.

System: Aβ42 oligomer-induced neural toxicity in human iPSC neurons
Test: Hit validation by IC50 curves in double culture (MAP2, Synapsin 1/2, CUX2, NFL-H)
Format: cell-based
Description: (§1) Error bars+/−s.e.m. and n=4 wells. IC50 curves were fitted by Prism software.
as §1
Error bars+/−s.e.m. and n=4 wells. IC50 curves were fitted using Prism software.
To further validate this pathway, several known inhibitors of kinases in the DLK signaling pathway were tested to determine whether they could also be neuroprotective in the AD model.

Compound: COc1cc(/C=C/C(=O)CC(=O)/C=C/c2ccc(O)c(OC)c2)ccc1O [Curcumin]
- validation of screen hit by IC50 curves: validated with IC50 curves
